The text below walks through data of publication PMC12714725.

Chains of the proteins cited; added tags and fusions are not shown.
UniProt P48727: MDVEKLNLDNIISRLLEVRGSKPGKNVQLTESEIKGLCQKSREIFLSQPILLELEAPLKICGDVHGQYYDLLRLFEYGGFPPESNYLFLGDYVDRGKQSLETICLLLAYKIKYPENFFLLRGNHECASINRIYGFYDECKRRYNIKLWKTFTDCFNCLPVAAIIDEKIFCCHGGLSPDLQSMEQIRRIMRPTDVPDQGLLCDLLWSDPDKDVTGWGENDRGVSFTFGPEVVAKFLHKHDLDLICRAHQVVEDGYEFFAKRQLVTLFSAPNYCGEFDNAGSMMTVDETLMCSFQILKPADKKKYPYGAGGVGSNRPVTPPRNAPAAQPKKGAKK
UniProt Q27497: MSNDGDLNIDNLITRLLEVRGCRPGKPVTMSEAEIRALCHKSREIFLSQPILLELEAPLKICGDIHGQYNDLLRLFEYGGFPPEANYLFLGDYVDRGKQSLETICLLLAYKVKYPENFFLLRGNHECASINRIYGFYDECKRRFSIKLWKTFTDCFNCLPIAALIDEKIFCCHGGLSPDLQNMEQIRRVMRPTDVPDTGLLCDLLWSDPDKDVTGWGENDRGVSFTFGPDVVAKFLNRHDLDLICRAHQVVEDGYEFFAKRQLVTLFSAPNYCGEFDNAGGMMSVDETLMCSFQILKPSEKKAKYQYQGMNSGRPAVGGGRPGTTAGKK

Changes are numbered by the printed parent chain. No constants are given. Whether binding was seen depends on the method and setting. Some results given as binding are weak or reduced against the parent protein; the word gives no strength. Tags and fused reporters may be left off the sequences shown.

Test [1] deals with T1, Full-length SDS-22 (1-326) fused to the GAL4 DNA binding domain (C. elegans) (UniProt P45969).
T1 sequence: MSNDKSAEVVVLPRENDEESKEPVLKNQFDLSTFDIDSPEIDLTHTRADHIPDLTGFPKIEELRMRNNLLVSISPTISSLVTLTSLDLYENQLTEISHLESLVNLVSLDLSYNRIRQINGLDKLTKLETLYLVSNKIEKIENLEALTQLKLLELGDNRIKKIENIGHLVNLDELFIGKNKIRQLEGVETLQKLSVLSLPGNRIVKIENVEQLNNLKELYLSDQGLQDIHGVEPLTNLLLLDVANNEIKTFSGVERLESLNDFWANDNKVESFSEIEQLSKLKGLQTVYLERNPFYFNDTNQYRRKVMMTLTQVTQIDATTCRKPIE
The experiment in a line: two-hybrid; GAL4-based yeast two-hybrid (Gateway), MAV203 yeast; SDS-22 as bait (GAL4 DBD), GSP-1 or GSP-2 as prey (GAL4 AD); growth on medium lacking leucine, tryptophan and histidine with 7.5 mM 3AT.

Test [2] concerns the target T2, Full-length SDS-22(E153A) fused to the GAL4 DNA binding domain (C. elegans) (UniProt P45969).
T2 sequence: T1 sequence with E153A
The description is as above.

On to “Full-length GSP-2 fused to the GAL4 activation domain (from UniProt P48727 1-333) (enzyme)”, for which the binding result is “binds” in test [1] and “no binding” in test [2].
On the same counts, the results for “Full-length GSP-1 fused to the GAL4 activation domain (from UniProt Q27497 1-329) (enzyme)” are “binds” and “no binding”.
